A short description of this assay: qHTS Assay to Find Inhibitors of Chronic Active B-Cell Receptor Signaling. Conditions: ABC-DLBCL IkBa-CBG/CBR reporter, luminescence ratio (green luciferase fused to IkBa over red control in TMD8 lymphoma cells), 4 h. An outline of the steps: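 TMD8 ABC-DLBCL cells carrying doxycycline-inducible green luciferase fused to IkappaBalpha plus unfused red luciferase were exposed to compounds (up to 46 uM) for 4 hrs at 37C. Activity came from the overlap-corrected green/red luminescence ratio.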
(Quantitative high-throughput screening tests each substance at several concentrations.)

Where [1] appears, read: measured here: CBR red luminescence, cell number.
The mark [2] stands for this setting: measured here: IkBa-CBG green luminescence.

The list shows a part of the results. These are further read-outs of the screen, such as a control signal, another cell line or another target. No call is given for them. The list favours compounds with an active or inconclusive main result. Words in brackets tell the shape of the fitted curve; partial curves, single points and poor fits give uncertain potencies.

What is called AC50 is the concentration at which the activity in the assay is half-maximal.

Regarding `O=C(c1cn(-c2ccccc2)nc1-c1cccc([N+](=O)[O-])c1)N1CCCCC1`, the AC50 under setting [1] was 3.55 µM [rising, single point]. As for `O=C(Nc1nnc(S(=O)(=O)N2CCCCCC2)s1)c1ccccc1F`, the AC50 under setting [1] is 0.562 µM [rising, full curve, poor fit]. For the molecule `CCOc1ccc(NC(=O)CN2CCN(CC(=O)Nc3ccccc3OC)CC2)cc1`, the AC50 under setting [1] was 12.6 µM [falling, partial curve, poor fit]. `COc1cccc(NC(=O)CN(C)C(=O)c2ccc(S(=O)(=O)Nc3ccccc3C)cc2)c1`: the AC50 under setting [1] was 29.1 µM [rising, single point]. On to `Cc1ccccc1-n1c(=O)n(Cc2ccco2)c(=O)c2[nH]cnc21`, for which the AC50 runs as follows: under setting [1], 20 µM [rising, partial curve, poor fit]; under setting [2], 14.1 µM [falling, partial curve, poor fit].

Turning to `COC(=O)c1cccc(NC(=O)c2ccc3c(c2)C(=O)N(Cc2cccnc2)C3=O)c1C`, the AC50 under setting [1] was 7.08 µM [falling, partial curve]. On the same count and under the same terms, as for `COc1ccc(C2=C(Nc3ccc(C)cc3)c3ccccc3C2=O)cc1`, the figure is 1.64 µM [rising, full curve, poor fit]; as for `COc1cccc(OC)c1C(=O)OCC(=O)N1CCC(Cc2ccccc2)CC1`, 29.1 µM [rising, single point]; as for `Nc1c(C(=O)Nc2nccs2)sc2nc(-c3cccs3)cc(C(F)(F)F)c12`, 3.26 µM [falling, partial curve, poor fit].

As for `COc1cccc(C(=O)Nc2ccc(NC(=O)C3CCCCC3C(=O)O)cc2)c1` (centres undefined), the AC50 under setting [1] is 20 µM [falling, single point]. For the molecule `O=C(N/N=C\c1ccc(-c2ccc(Cl)c(Cl)c2)o1)C(=O)N1CCCC1`, the AC50 under setting [1] was 35.5 µM [falling, single point]. `Cc1ccc(-n2c(SCC(=O)OC(C)C)nnc2-c2ccncc2)cc1`: the AC50 under setting [1] is 29.1 µM [falling, single point].

Consider `O=C(/C=C/c1cccs1)Nc1sc2c(c1C(=O)O)CCCC2`, for which the AC50 under setting [1] was 0.794 µM [falling, full curve].

In the case of `O=C(N/N=C(\Cc1ncc[nH]1)c1ccccc1)c1cccnc1`, under setting [1], the AC50 was 8.91 µM [falling, partial curve, poor fit].

With `CCCOc1ccc(C2c3c(oc4ccccc4c3=O)C(=O)N2CCCN2CCOCC2)cc1` (centres undefined), under setting [1], the AC50 was 2.31 µM [rising, partial curve, poor fit].

As for `CC(C(=O)Nc1ccccc1-c1ccccc1)N(C)Cc1nc2ccccc2c(=O)[nH]1` (centres undefined), the AC50 under setting [1] is 0.794 µM [rising, full curve, poor fit]. Take `NNc1nc(-c2ccccc2)c2ccccc2n1`: the AC50 under setting [1] was 6.31 µM [falling, partial curve] and the AC50 under setting [2] was 12.6 µM [rising, partial curve, poor fit].

The record behind these values is PubChem BioAssay AID493014 (National Center for Advancing Translational Sciences (NCATS), 2011).
